Source: doi:10.1101/2025.04.25.650293
Read-outs that look alike come from different tables or passages of the source. These are yes or no findings as the source states them, for the method shown. For part of these data: In cells and extracts the contact can be indirect. Some entries that bind do so weakly or less than the wild type. For part of these data: Tags and fused reporters may be left off the sequences shown. Values belong to the binder of their own block, whether it stands above or below them.

Sequences of proteins named here, by UniProt entry; tags and fusion partners are left off.
UniProt Q13547: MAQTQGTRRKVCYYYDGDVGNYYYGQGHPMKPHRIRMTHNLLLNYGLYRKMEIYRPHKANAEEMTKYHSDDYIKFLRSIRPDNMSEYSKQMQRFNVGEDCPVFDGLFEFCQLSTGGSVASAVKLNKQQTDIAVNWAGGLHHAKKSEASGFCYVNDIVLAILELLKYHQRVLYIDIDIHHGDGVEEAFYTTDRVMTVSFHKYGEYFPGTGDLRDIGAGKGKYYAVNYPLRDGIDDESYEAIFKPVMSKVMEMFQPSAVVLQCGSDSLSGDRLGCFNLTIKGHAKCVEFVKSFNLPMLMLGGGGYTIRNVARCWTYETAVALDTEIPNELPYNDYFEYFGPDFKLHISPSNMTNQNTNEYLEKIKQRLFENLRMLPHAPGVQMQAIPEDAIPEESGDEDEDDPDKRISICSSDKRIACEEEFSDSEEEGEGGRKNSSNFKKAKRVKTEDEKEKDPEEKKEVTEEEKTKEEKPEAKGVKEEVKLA

Columns and labels:
[1] = target: T1, ELMSAN1 (human (endogenous in 143B)) (UniProt Q6PJG2); assay: co-IP
T1 sequence: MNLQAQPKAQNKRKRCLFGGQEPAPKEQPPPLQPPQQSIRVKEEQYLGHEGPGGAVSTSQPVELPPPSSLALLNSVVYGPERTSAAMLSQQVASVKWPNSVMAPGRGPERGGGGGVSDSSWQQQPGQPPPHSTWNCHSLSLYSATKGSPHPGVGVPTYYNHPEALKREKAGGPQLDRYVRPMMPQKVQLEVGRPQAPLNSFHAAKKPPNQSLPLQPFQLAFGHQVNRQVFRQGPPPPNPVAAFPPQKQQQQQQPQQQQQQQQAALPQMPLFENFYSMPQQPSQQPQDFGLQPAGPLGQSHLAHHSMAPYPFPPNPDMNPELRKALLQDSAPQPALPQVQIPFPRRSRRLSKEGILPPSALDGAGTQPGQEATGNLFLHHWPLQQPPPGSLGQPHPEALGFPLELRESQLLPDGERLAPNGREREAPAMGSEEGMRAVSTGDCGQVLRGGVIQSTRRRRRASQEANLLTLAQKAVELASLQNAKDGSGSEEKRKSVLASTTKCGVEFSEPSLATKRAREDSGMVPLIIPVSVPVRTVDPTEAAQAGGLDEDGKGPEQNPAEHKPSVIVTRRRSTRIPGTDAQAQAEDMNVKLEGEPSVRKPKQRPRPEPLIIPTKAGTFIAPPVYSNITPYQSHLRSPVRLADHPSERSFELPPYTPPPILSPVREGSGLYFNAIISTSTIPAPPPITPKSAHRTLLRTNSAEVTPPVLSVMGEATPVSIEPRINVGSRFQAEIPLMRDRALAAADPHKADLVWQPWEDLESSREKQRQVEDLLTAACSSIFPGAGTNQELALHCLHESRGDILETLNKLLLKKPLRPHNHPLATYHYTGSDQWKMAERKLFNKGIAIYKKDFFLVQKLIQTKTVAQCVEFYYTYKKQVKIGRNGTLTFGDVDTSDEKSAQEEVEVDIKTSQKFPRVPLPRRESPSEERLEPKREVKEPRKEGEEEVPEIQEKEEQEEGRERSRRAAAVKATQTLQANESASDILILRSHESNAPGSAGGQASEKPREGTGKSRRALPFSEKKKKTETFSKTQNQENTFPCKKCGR

[2] = target: T1, ELMSAN1 (human (endogenous in 143B)); assay: co-IP; remark: listed apart in the source
[3] = target: T2, in vitro translated His-HA-ELMSAN1 (UniProt Q6PJG2); assay: pull-down
T2 sequence: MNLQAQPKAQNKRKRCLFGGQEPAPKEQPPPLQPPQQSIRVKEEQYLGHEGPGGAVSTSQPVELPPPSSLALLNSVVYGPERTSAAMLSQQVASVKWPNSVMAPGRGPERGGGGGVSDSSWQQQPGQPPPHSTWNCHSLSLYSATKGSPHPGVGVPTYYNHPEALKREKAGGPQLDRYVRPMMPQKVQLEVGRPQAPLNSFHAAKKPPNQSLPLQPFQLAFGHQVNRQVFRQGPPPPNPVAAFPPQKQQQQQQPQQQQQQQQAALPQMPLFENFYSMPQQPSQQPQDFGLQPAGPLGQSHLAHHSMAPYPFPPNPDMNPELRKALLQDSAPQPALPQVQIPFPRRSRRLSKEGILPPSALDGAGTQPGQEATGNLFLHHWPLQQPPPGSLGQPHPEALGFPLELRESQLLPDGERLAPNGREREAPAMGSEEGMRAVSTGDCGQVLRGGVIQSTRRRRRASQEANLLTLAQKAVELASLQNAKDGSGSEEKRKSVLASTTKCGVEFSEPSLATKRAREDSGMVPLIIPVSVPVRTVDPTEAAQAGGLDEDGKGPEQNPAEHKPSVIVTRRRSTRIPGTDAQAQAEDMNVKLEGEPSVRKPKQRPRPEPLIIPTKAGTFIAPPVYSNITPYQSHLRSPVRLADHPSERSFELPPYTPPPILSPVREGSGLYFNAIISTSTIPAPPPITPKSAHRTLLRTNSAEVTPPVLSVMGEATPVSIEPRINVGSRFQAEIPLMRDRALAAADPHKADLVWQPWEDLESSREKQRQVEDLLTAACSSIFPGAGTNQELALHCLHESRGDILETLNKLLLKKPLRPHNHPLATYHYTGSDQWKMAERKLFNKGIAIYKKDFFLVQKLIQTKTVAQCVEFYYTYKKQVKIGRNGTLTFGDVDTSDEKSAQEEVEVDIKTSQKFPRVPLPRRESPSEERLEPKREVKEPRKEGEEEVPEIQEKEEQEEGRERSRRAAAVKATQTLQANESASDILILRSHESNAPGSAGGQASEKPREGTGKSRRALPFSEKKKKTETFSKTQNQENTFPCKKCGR

recombinant His-ELMSAN1 = target: T3, recombinant His-ELMSAN1 (UniProt Q6PJG2); assay: pull-down
T3 sequence: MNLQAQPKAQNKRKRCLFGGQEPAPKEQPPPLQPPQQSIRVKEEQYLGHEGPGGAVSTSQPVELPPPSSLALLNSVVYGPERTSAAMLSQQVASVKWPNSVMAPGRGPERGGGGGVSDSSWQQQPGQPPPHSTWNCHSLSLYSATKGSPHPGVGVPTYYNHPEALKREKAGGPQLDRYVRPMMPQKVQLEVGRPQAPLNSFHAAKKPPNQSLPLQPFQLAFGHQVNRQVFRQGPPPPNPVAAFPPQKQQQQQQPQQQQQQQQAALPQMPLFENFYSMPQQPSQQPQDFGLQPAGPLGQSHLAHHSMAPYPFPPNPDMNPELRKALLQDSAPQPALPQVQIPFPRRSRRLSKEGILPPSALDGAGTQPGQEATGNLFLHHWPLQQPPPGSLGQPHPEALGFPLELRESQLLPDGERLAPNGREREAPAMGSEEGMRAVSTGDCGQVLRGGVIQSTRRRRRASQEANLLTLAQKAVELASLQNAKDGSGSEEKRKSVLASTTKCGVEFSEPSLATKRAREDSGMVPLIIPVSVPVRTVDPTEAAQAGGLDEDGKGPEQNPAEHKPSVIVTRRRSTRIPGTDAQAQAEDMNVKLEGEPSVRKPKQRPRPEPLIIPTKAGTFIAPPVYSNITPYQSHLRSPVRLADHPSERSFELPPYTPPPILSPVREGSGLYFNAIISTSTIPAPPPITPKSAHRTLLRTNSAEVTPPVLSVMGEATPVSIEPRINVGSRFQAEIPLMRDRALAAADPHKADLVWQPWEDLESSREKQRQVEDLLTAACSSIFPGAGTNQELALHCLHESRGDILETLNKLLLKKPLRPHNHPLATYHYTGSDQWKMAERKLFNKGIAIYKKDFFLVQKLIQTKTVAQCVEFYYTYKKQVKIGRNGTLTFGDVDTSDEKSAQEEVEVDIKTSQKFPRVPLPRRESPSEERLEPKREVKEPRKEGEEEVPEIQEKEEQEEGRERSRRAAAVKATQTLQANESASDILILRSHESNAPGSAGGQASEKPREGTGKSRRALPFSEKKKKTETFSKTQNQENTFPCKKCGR

[4] = target: T4, DLAT (dihydrolipoamide S-acetyltransferase, the PDC E2 subunit) (human (endogenous in 143B)) (UniProt P10515); assay: co-IP
T4 sequence: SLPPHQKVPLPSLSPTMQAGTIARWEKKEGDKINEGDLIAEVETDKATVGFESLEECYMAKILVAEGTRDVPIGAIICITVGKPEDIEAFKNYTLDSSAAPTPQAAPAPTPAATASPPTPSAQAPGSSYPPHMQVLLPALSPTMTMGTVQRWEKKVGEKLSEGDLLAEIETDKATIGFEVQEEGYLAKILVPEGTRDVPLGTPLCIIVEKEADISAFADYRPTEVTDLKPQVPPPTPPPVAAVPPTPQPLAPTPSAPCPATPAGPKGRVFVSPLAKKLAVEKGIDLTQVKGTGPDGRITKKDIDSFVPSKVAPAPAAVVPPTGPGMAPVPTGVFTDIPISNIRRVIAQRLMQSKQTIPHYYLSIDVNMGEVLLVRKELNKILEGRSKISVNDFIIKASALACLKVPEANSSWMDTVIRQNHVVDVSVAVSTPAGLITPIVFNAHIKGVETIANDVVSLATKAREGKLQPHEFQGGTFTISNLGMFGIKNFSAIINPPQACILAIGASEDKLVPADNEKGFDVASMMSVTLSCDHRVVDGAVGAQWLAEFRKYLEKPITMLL

[5] = target: HDAC1 (human (endogenous in 143B)) (UniProt Q13547); assay: co-IP

binding [1]: binds
binding [2]: binds
B1: DLAT (dihydrolipoamide S-acetyltransferase, the PDC E2 subunit) (protein, UniProt P10515 87-647)
chain: SLPPHQKVPLPSLSPTMQAGTIARWEKKEGDKINEGDLIAEVETDKATVGFESLEECYMAKILVAEGTRDVPIGAIICITVGKPEDIEAFKNYTLDSSAAPTPQAAPAPTPAATASPPTPSAQAPGSSYPPHMQVLLPALSPTMTMGTVQRWEKKVGEKLSEGDLLAEIETDKATIGFEVQEEGYLAKILVPEGTRDVPLGTPLCIIVEKEADISAFADYRPTEVTDLKPQVPPPTPPPVAAVPPTPQPLAPTPSAPCPATPAGPKGRVFVSPLAKKLAVEKGIDLTQVKGTGPDGRITKKDIDSFVPSKVAPAPAAVVPPTGPGMAPVPTGVFTDIPISNIRRVIAQRLMQSKQTIPHYYLSIDVNMGEVLLVRKELNKILEGRSKISVNDFIIKASALACLKVPEANSSWMDTVIRQNHVVDVSVAVSTPAGLITPIVFNAHIKGVETIANDVVSLATKAREGKLQPHEFQGGTFTISNLGMFGIKNFSAIINPPQACILAIGASEDKLVPADNEKGFDVASMMSVTLSCDHRVVDGAVGAQWLAEFRKYLEKPITMLL

binding [3]: binds
binding (recombinant His-ELMSAN1): binds
B2: recombinant Glutathione S-transferase (GST)-DLAT (protein, UniProt P10515 87-647)
chain: SLPPHQKVPLPSLSPTMQAGTIARWEKKEGDKINEGDLIAEVETDKATVGFESLEECYMAKILVAEGTRDVPIGAIICITVGKPEDIEAFKNYTLDSSAAPTPQAAPAPTPAATASPPTPSAQAPGSSYPPHMQVLLPALSPTMTMGTVQRWEKKVGEKLSEGDLLAEIETDKATIGFEVQEEGYLAKILVPEGTRDVPLGTPLCIIVEKEADISAFADYRPTEVTDLKPQVPPPTPPPVAAVPPTPQPLAPTPSAPCPATPAGPKGRVFVSPLAKKLAVEKGIDLTQVKGTGPDGRITKKDIDSFVPSKVAPAPAAVVPPTGPGMAPVPTGVFTDIPISNIRRVIAQRLMQSKQTIPHYYLSIDVNMGEVLLVRKELNKILEGRSKISVNDFIIKASALACLKVPEANSSWMDTVIRQNHVVDVSVAVSTPAGLITPIVFNAHIKGVETIANDVVSLATKAREGKLQPHEFQGGTFTISNLGMFGIKNFSAIINPPQACILAIGASEDKLVPADNEKGFDVASMMSVTLSCDHRVVDGAVGAQWLAEFRKYLEKPITMLL

binding [4]: binds
binding [5]: binds
B3: ELMSAN1 (protein, UniProt Q6PJG2 1-1045)
chain: MNLQAQPKAQNKRKRCLFGGQEPAPKEQPPPLQPPQQSIRVKEEQYLGHEGPGGAVSTSQPVELPPPSSLALLNSVVYGPERTSAAMLSQQVASVKWPNSVMAPGRGPERGGGGGVSDSSWQQQPGQPPPHSTWNCHSLSLYSATKGSPHPGVGVPTYYNHPEALKREKAGGPQLDRYVRPMMPQKVQLEVGRPQAPLNSFHAAKKPPNQSLPLQPFQLAFGHQVNRQVFRQGPPPPNPVAAFPPQKQQQQQQPQQQQQQQQAALPQMPLFENFYSMPQQPSQQPQDFGLQPAGPLGQSHLAHHSMAPYPFPPNPDMNPELRKALLQDSAPQPALPQVQIPFPRRSRRLSKEGILPPSALDGAGTQPGQEATGNLFLHHWPLQQPPPGSLGQPHPEALGFPLELRESQLLPDGERLAPNGREREAPAMGSEEGMRAVSTGDCGQVLRGGVIQSTRRRRRASQEANLLTLAQKAVELASLQNAKDGSGSEEKRKSVLASTTKCGVEFSEPSLATKRAREDSGMVPLIIPVSVPVRTVDPTEAAQAGGLDEDGKGPEQNPAEHKPSVIVTRRRSTRIPGTDAQAQAEDMNVKLEGEPSVRKPKQRPRPEPLIIPTKAGTFIAPPVYSNITPYQSHLRSPVRLADHPSERSFELPPYTPPPILSPVREGSGLYFNAIISTSTIPAPPPITPKSAHRTLLRTNSAEVTPPVLSVMGEATPVSIEPRINVGSRFQAEIPLMRDRALAAADPHKADLVWQPWEDLESSREKQRQVEDLLTAACSSIFPGAGTNQELALHCLHESRGDILETLNKLLLKKPLRPHNHPLATYHYTGSDQWKMAERKLFNKGIAIYKKDFFLVQKLIQTKTVAQCVEFYYTYKKQVKIGRNGTLTFGDVDTSDEKSAQEEVEVDIKTSQKFPRVPLPRRESPSEERLEPKREVKEPRKEGEEEVPEIQEKEEQEEGRERSRRAAAVKATQTLQANESASDILILRSHESNAPGSAGGQASEKPREGTGKSRRALPFSEKKKKTETFSKTQNQENTFPCKKCGR
